Results: PMC6104087, “Structural basis for membrane tethering by a bacterial dynamin-like pair” (Nature Communications, 2018)
Results are given in words; binding and its absence hold for the method and conditions named.

Biological target: Cj-DLP1 (Campylobacter jejuni)
Experiment: SEC-MALS; individual proteins; 100 μl at 1–2 mg/ml on Superdex 200 10/300 GL in TEN 7.5 (20 mM Tris pH 7.5, 1 mM EDTA, 1 mM sodium azide), 1 mM DTT; both purified

B1: Cj-DLP1 (natural protein, Campylobacter jejuni, UniProt A0A0H3PJL7 1-728, looked up)
chain: MKELFQKIWQNELQFLNFDAKFQDKSKLDTAECAIILSVNKDNYERYFLLKEFQELCKKIDLRVDIFSMQNAQICILNLFKSGFISKQDLLKALKILEKISKNTEIFDFILQEKVQSIDQKALFQNDFKELNTINLELQKLSFDENLKSRLQKTLEKFQNLEFNIAITGVMNAGKSSLLNALLKEDFLGVSNIPETANLTVLSYGKSEEAKIYFWDKKEWQNILESSHFNADLKEFIDKLDKSVNIEDFIKDKPLIQNIALCELKNFSSAKNKISALIKKIEIKSHLEFLKNNISIVDTPGLDDVVVQREIVTNEYLRESDFLIHLMNASQSLTQKDADFLVHCLLNSRLSKFLIVLTKADLLSKKDLEEVIVYTKESLKSRLVDLDENLVEKIDFLCVSAKMASDFYKGLASKESLQKSGMQEFENYLFNELYAGEKSKIALRAYKKELHLELKNILSEYEMQNRLIKENKQGVSEENQKLLLELQKQNTLLKEAQDEISNSIAKLKNIDSGIDNLVLLLAKKLKERLIDEFKYLKNNAQKLNLSRILNIVDITTKDGINDILREIKFENIKKIEELKTNLSLKYDFLKDDFDNGFEGFKDGISKNIDSIFQSEKFALLRLKIEKLSNLKSDLYELETNLDTVIFDTFKEFKMSEILNSLNINGAFFEFLNDKLKHYEKNQKSKLESLEKVLQSLKNQDANILNSFEENLEKIEKLKQLEMGLLNAD
notes: Cj-DLP1, dynamin-like protein of Campylobacter jejuni, gene cj0411, full-length protein, 84.5 kDa; Monomer alone; Two copies stand in the 2:2 tetramer with Cj-DLP2; also called cj0411; CJ0411; source: E. coli BL21 (DE3), purified (HisTrap, gel filtration)
For B1, the binding was “no binding (tested: 100 μl at 1–2 mg/ml injected)”.
